Reference: PubChem BioAssay AID1508600 (Functional Genomics Laboratory (NCATS/FGL), 2020)
Among all 53,000 sequences or so, about 3,700 (7%) were called active.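 How the source made its calls: active means gene knockdowns whose robust z-score for IL-1 alpha signal is at least 2 or at most -2, so actives lie on both sides; inactive means the rest.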 This is one part of the list.

assay: Components of the Cytosolic LPS Sensing Pathway: Gene Identification via Genome-wide siRNA Screen; conditions: RAW264.7 macrophages, IL-1a HTRF, actives lie on both sides, screened at 100 nM (by protocol), cells primed 5 h with Pam3CSK4 first;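 further: robust z of the log signal after scaling to non-targeting control siRNA wells of the plate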
Summary of the method: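 Knockdown: 100 nM siRNA, 48h, RAW264.7. Stimulation: Pam3CSK4 5 h, then LipidA via TransIT-TKO 24 h. Output: supernatant IL-1a HTRF, negative-control-normalized, log robust z-score; viability by CellTiter-Glo.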

Sequence | z-score
GCAUGUCAUCCACAAAUACTT against Dpm2 | inactive: 0.024
GGCGGAAACUCAAGUUCUUTT against Mcoln3 | inactive: -0.46
GCUCAUUUGCACAACAUGCTT against Bcl11b | inactive: -0.512
GGCCAUAAACAACCAUUUATT against Ppp1r1b | inactive: 0.747
GCGGAUAUGAAGGACAUGCTT against Gskip | inactive: 0.0794
GGAUUUCUUAGCCAUGUUCTT against Lpxn | inactive: -0.28
GCAAUAAGUCUCGGGAACATT against Gpr158 | inactive: -1.2
CCAAAAUUAAUGUGACAGATT against 2210408I21Rik | inactive: -0.619
GAUUCUCCAUUGCCCAAUGTT against Lce1i | inactive: 0.0132
CGUUGUGUAUAGGUCUUUATT against M6pr | inactive: -0.622
CCAAACAUAGAUGUUACUGTT against Ace2 | inactive: 1.35
GGUCGACAGAAAAAACAUUTT against Lrrc4c | inactive: 1.78
GGAAUCACGAAGGAGAUUCTT against Rexo5 | inactive: -1.25
GGCCAUGGUGGCGUGUUAUTT against Egln2 | inactive: -0.524
GCUUGGAUUGCCCUGAUUUTT against Olfr640 | inactive: -1.41
GGGACUCGAAGCACUGUGUTT against Cinp | inactive: -0.159
GCUGGCACAAUCUUUCAAATT against Cdh8 | inactive: 0.796
CCAUGUCAGUAUCUCAUGUTT against Pdc | inactive: -0.456
GGCCAUUGGACACAGAAUCTT against Rpl35a | active: 2.28
GCCAGAGACCCAAAUCAGATT against BC106179 | inactive: 0.328
GCCGAUGUGUUAGUGGCUATT against Ddx28 | inactive: -0.609
GGCUAUUUAUUGCAUUCUCTT against Zfp689 | inactive: 0.388
GCUUUGGCUCAAAGCACGUTT against Mcm3 | inactive: 1.93

Sequence | z-score
GGGUCCUCUGCUCAUUUGGTT against Wdr17 | inactive: -0.334
CCAAAUAACUUUGUUGGCATT against Srsf12 | inactive: -0.937
CCCUAUAUAUCCACAUGUUTT against Mc3r | inactive: -0.818
GCACCCACGAUUAUUGGAATT against Ppa1 | inactive: -0.0492
GCUUAUACCUCCAUCAUCGTT against Cops8 | inactive: -0.936
GGAAGGAAGAGAUGAAGAATT against Cetn1 | inactive: 1.09
GGCUAACGAAGAAUAUCAATT against Tusc3 | inactive: 0.496
GCACCACUAUUUUAGCAUATT against Rap1b | inactive: -0.221
GGAAUGAGAGAACUUGAUATT against Trmt5 | inactive: -0.521
GGAAUCCUUGAGACAGAUUTT against Impg1 | inactive: 0.0308
GAGUUUACCUAGUCUUUGATT against Qrich1 | inactive: 0.149
CCACAUUUGGAACCUACGATT against Lrrcc1 | inactive: -0.831
GGAUGUAGGUGACUGUCGATT against 4932411K12 | inactive: -0.824
GCCACUAGCCUUUCAAAAGTT against Muc1 | inactive: 1.11
CCGCUUUCUUGCCAUUCACTT against Olfr576 | inactive: -0.266
CCUACAAACCAGAAGAGGUTT against Akr1c19 | inactive: 0.285
GGCUUUUGUAACGAAAGGCTT against Wif1 | inactive: 0.273
GGGAUUAUUCAGUCUAUGUTT against Lgals12 | inactive: 0.124
GGAGGAAGAGGUCAUCUUCTT against Olfr1378 | inactive: -0.541
GGUCCACACUUUCUGUCUUTT against Mkks | inactive: 1.03
GUGACCAGCUAUAAUCAGATT against Ins1 | inactive: -0.404
GGUUAAAGGGAAUUUUAUGTT against Zcchc14 | inactive: -0.395
CGGGCGUGUGUUUGAAAAGTT against Cpox | inactive: 0.418

Sequence | z-score
GGUGCUUUUACAUCUCACATT against Cd72 | inactive: -0.791
GGUAAUGAGACGCGGUUUATT against Ina | inactive: 0.202
GGAAAAGAUUUUUCUCUGATT against Usp26 | inactive: 0.466
GCCGAUGAUACCAAACCGATT against Oser1 | inactive: 0.151
GGUUGUCAAGAGCUCAUACTT against Tefm | inactive: -1.31
GGUACCUGAAAAAAACAAATT against Tmem42 | inactive: -1.44
GCCCAUUCUAAACAAAUAATT against Ptcd1 | inactive: -0.825
GGGACUCUACCUUCAAUGUTT against Fkbp9 | inactive: 0.482
CGGCUCAUAGGAAUGAUUUTT against Brf1 | inactive: 0.134
GGACACAUACUACACUAAGTT against Upf1 | inactive: -0.811
GCUGAAUAGCCUCUAUCUATT against Rasgrp4 | inactive: 0.261
GGGAUUUAAAAGGAAAUGUTT against Gbp7 | inactive: -1.05
GCAAAUCCCUCUGAAUGAUTT against Aox3 | inactive: -1.95
GGAUCCAAUACCAGCUAGUTT against Sh3bgrl3 | inactive: -0.158
CCUGGAAGGAUUAUUGCACTT against Klf9 | inactive: 1.9
GGUCUUCUUCAAACAACUGTT against Hhip | inactive: -0.941
GGAAAGUCUCCAAGUUUGUTT against Snx20 | inactive: 1.95
GGGUACAUUCUGGAAAUUUTT against Ids | inactive: -1.08
GGAAGAAGAGGAUGAGAUUTT against Clcn6 | inactive: -1.73
GGACCUGUACAAAAAGGGATT against Mag | inactive: -1.1
GCCAUAUCUGGUCACAUGUTT against Zfp738 | inactive: 0.464
CCUGAUCCUCAGUUUGGUGTT against Prl | inactive: 0.129
CGUAUAGGCACAAAGUAAATT against Gpr176 | inactive: -0.3

Reformatted: results already given

| Sequence | z-score |
| --- | --- |
| GCCAUAUCUGGUCACAUGUTT against Zfp738 | inactive: 0.464 |
| CCUGAUCCUCAGUUUGGUGTT against Prl | inactive: 0.129 |
| CGUAUAGGCACAAAGUAAATT against Gpr176 | inactive: -0.3 |
